# Where a name gives a salt, the structure may show the parent alone. The list shows a part of the results. Most entries show no effect beyond the scatter of the controls.
# Legend:
# Settings in all cases: 5 µM; treatment: days 7-14 after plating, readout day 21
# [1] = test system: hPSC-derived cortical neurons (WA09); test: nucleus area z-score vs screen plate; higher = larger nuclei (more mature)
# [2] = test system: hPSC-derived cortical neurons (WA09); test: total neurite length per nucleus (MAP2) z-score; higher = more neurite growth
# [3] = test system: hPSC-derived cortical neurons (WA09); test: nucleus roundness z-score vs screen plate; higher = rounder nuclei (more mature)
# [4] = test system: hPSC-derived cortical neurons (WA09); test: KCl-induced FOS+/EGR-1+ double-positive nuclei fraction z-score (KCl minus unstimulated); higher = stronger activity-induced IEG response
SMILES,nucleus area z-score [1],total neurite length per nucleus (z-score) [2],nucleus roundness z-score [3],KCl-induced FOS+/EGR-1+ double-positive nuclei fraction z-score [4]
COc1cc2c(Nc3ccc(NC(=O)c4ccccc4)cc3)ncnc2cc1OCCCN1CCOCC1,1.25,1.47,0.587,-0.0316
C=C1C(=O)O[C@H]2[C@H]1CC/C(C)=C/CC[C@@]1(C)O[C@@H]21 [(-)-Parthenolide],-0.302,-0.87,-1.19,0.0475
CN(C)c1nc(N(C)C)nc(N(C)C)n1 [Altretamine],-0.203,0.515,-0.155,1.01
Cc1[nH]c(=O)c(C#N)cc1-c1ccncc1 [Milrinone],1.23,0.973,0.0694,1.54
Cc1nc2n(c(=O)c1CCN1CCC(c3noc4cc(F)ccc34)CC1)CCCC2 [Risperidone],-0.0848,-0.156,-0.407,0.964
Cc1ccc(C(=O)c2ccc(CC(=O)O)n2C)cc1 [Tolmetin Sodium],0.873,0.938,0.289,-0.478
COC1=C(OC)C(=O)C(CCCCCCCCCCO)=C(C)C1=O [Idebenone],1.46,0.387,0.725,1.47
Cn1cc(C2=C(c3ccc(Cl)cc3Cl)C(=O)NC2=O)c2ccccc21,1.43,0.399,0.275,0.659
CCn1cc(-c2cccc(C(F)(F)F)c2)c2sc(C(=N)NC3CCS(=O)(=O)CC3)cc2c1=O,-1.55,-1.37,-0.411,-0.565
CC(C(O)c1ccc(O)cc1)N1CCC(Cc2ccccc2)CC1 (configuration not stated) [Ifenprodil Tartrate],-3.15,-3.12,-2.32,-1.45
O=c1[nH]c(=O)n([C@H]2C[C@H](O)[C@@H](CO)O2)cc1F [Floxuridine],-1.69,-1.06,-0.219,-1.37
C[C@H]1[C@H](NC(=O)/C(=N\OC(C)(C)C(=O)O)c2csc(N)n2)C(=O)N1S(=O)(=O)O [Aztreonam],-0.695,0.499,-1.3,-0.33
CCN(CC)CCCC(C)Nc1c2ccc(Cl)cc2nc2ccc(OC)cc12 (configuration not stated) [Quinacrine 2HCl],-5.24,-1.56,-5.56,-1.51
NC(N)=NCCCC(N)C(=O)NCC(=O)NC(CC(=O)O)C(=O)O (stereo not drawn) [RGD (Arg-Gly-Asp) Peptides],1.18,-0.379,-0.435,-0.217
CC(C)N(C[C@H]1O[C@@H](n2cnc3c(N)ncnc32)[C@H](O)[C@@H]1O)[C@H]1C[C@@H](CCc2nc3cc(C(C)(C)C)ccc3[nH]2)C1,1.05,1.05,1.66,2.37
CC1(C)S[C@@H]2[C@H](NC(=O)C(C(=O)O)c3ccccc3)C(=O)N2[C@H]1C(=O)O (some centres not stated) [Carbenicillin disodium],0.449,-0.448,-1.34,-0.736
Cc1ccc2c(Cl)cc(Cl)c(O)c2n1 [Chlorquinaldol],0.154,-0.0519,0.505,2.33
Fc1cc(-c2cccc3ncc(-c4cnn(C5CCNCC5)c4)nc23)cc(F)c1CN1CCOCC1,-14.5,-5.66,-5.91,-0.937
C=CC(=O)Nc1cccc(Nc2nc(Nc3ccc(OCCOC)cc3)ncc2F)c1,-2.4,0.21,-0.426,1.52
O=C(O)CCc1nc(-c2ccccc2)c(-c2ccccc2)o1 [Oxaprozin],-0.165,0.126,0.647,-0.372

SMILES,nucleus area z-score [1],total neurite length per nucleus (z-score) [2],nucleus roundness z-score [3],KCl-induced FOS+/EGR-1+ double-positive nuclei fraction z-score [4]
CC(=O)Nc1nc(C)c(-c2ccc(Cl)c(S(=O)(=O)NCCO)c2)s1,-0.887,-0.191,0.195,0.129
CN(C)[C@@H](CCOc1cccc2ccccc12)c1ccccc1 [Dapoxetine HCl],-0.0415,-1.07,-0.724,-0.948
O=C(O)CCCc1ccccc1 [Sodium Phenylbutyrate],0.164,0.0222,0.126,0.614
CC(C)(C)c1cc(/C=C(\C#N)C(N)=S)cc(C(C)(C)C)c1O [Tyrphostin AG 879],0.351,0.677,0.331,1.52
C[C@H]1c2cccc(O)c2C(=O)C2=C(O)[C@]3(O)C(=O)C(C(N)=O)=C(O)[C@@H](N(C)C)[C@@H]3[C@@H](O)[C@@H]21 [Doxycycline HCl],0.209,-0.346,-0.631,0.138
O=C(/C=C/c1ccccc1)NC(NC(=S)Nc1cccc2cccnc12)C(Cl)(Cl)Cl (configuration not stated) [Salubrinal],0.444,-0.119,-0.218,0.62
CC#C[C@]1(O)CC[C@H]2[C@@H]3CCC4=CC(=O)CCC4=C3[C@@H](c3ccc(N(C)C)cc3)C[C@@]21C [Mifepristone],-2.16,-3.29,-0.738,-0.805
CCc1cc2c(cc1CC)CC(NC[C@H](O)c1ccc(O)c3[nH]c(=O)ccc13)C2 [Indacaterol Maleate],0.0181,-0.4,0.0633,-0.0019
CC(C)n1c(/C=C/C(O)CC(O)CC(=O)O)c(-c2ccc(F)cc2)c2ccccc21 (configuration not stated) [Fluvastatin Sodium],-2.05,-0.7,-2.83,-1.33
O=C1c2cccc(O)c2C(=O)c2c(O)cccc21 [Danthron],0.551,-0.0464,-0.0161,1.04
CC(=O)NS(=O)(=O)c1ccc(NC(=O)c2ccccc2C(=O)O)cc1 [Phthalylsulfacetamide],0.404,0.593,0.924,0.858
O=C(O)C1(C(=O)O)CCC1.[NH2-].[NH2-].[Pt+2] [Carboplatin],-0.0278,-0.0195,-0.133,-0.553
C#C[C@]1(O)CC[C@H]2[C@@H]3CCC4=CC(=O)CC[C@@H]4[C@H]3C(=C)C[C@@]21CC [Etonogestrel],-0.373,-0.284,-0.611,-0.307
COc1cc(C=O)ccc1O [Vanillin],2.67,-1.06,-1.27,0.03
NC(=O)c1ncn([C@@H]2O[C@H](CO)[C@@H](O)[C@H]2O)c1O [Mizoribine],0.362,0.207,0.164,0.257
CC1(C)CCC[C@]2(C)[C@H]3CC(=O)O[C@]3(C)CC[C@@H]12 [Sclareolide],0.89,-0.821,-1.43,0.564
CC(C)(C)[N+]([O-])=Cc1ccc(S(=O)(=O)O)cc1S(=O)(=O)O,0.483,1.18,0.807,0.469
COCCCOc1cc(C[C@@H](C[C@H](N)[C@@H](O)C[C@H](C(=O)NCC(C)(C)C(N)=O)C(C)C)C(C)C)ccc1OC [Aliskiren Hemifumarate],1.56,0.529,-0.204,-0.454
CCOc1cc([C@@H](CS(C)(=O)=O)N2C(=O)c3cccc(NC(C)=O)c3C2=O)ccc1OC,1.23,1.48,0.618,0.0388
Cc1ccc(NC(=O)c2ccc(CN3CC[C@H](N(C)C)C3)c(C(F)(F)F)c2)cc1Nc1nccc(-c2cncnc2)n1 [Bafetinib (INNO-406)],-0.188,-0.166,0.0917,0.021

SMILES,nucleus area z-score [1],total neurite length per nucleus (z-score) [2],nucleus roundness z-score [3],KCl-induced FOS+/EGR-1+ double-positive nuclei fraction z-score [4]
Cc1c(N)c(=O)n(-c2ccccc2)n1C [4-Aminoantipyrine],0.694,0.74,0.328,0.794
CN1CCN(Cc2ccc(Nc3ncc(Cl)c(Nc4ccccc4S(=O)(=O)N(C)C)n3)cc2)CC1,-12.6,-5.61,-4.48,-1.54
COc1cccc(-n2c(=O)[nH]c3cc(Cl)n(-c4ccc(-c5cccc(OC)c5O)cc4)c3c2=O)c1,1.5,-0.551,-0.573,-1.09
CC(=O)N1CCN(CCOc2ccc(C3CCN(C4=Nn5c(nnc5C(F)(F)F)CC4)CC3)cc2)CC1,-0.683,-0.699,-0.338,1.51
C[C@]12CC[C@H](O)CC1=CC[C@@H]1[C@@H]2CC[C@]2(C)C(n3cnc4ccccc43)=CC[C@@H]12 [Galeterone],0.436,-0.805,0.0138,2.43
CCCC(C)NC(=O)c1ccc(Cl)c(Cl)c1 (configuration not stated),1.83,1.87,0.472,2.17
Cc1c(NC(=O)c2ccc(C(C)(C)C)cc2)cccc1-c1cn(C)c(=O)c(Nc2ccc(C(=O)N3CCOCC3)cc2)n1,2.14,1.45,0.806,1.9
CC(=O)O[C@H]1C[C@@]2(C)[C@@H](C[C@@H](O)[C@H]3[C@@]4(C)CC[C@@H](O)[C@@H](C)[C@@H]4CC[C@@]32C)/C1=C(\CCC=C(C)C)C(=O)O [Fusidate Sodium],0.074,0.0302,8.18e-05,0.376
COc1ccc(CNCc2cccc3ccccc23)cc1,-0.349,-0.355,0.178,0.947
C#Cc1cccc(Nc2ncnc3cc(OCCOC)c(OCCOC)cc23)c1 [Erlotinib HCl (OSI-744)],1,1.17,-0.248,1.22
O=c1[nH]c(=O)n([C@H]2C[C@H](O)[C@@H](CO)O2)cc1I [Idoxuridine],-1.23,0.652,1.5,1.17
O=C(/C=C/c1ccc(O)c(O)c1)c1ccc(O)cc1O [Butein],-1.89,-0.398,3.01,-2.19
O=c1cc(-c2ccc(O)cc2)oc2cc(O)cc(O)c12 [Apigenin],1.45,-0.933,-0.817,-0.0755
CCN(CC)CCOCCOC(=O)C(CC)(CC)c1ccccc1 [Oxeladin Citrate],-1.75,-1.35,-0.0978,-0.498
CNC(=O)c1ccccc1Nc1nc(Nc2ccc(N3CCOCC3)cc2OC)ncc1Cl,-4.77,-0.206,-2.81,0.0627
Nc1ncnc2n[nH]c(Nc3ccc(F)cc3)c12,1.11,0.11,-0.416,1.83
CNC(=O)c1nn(C)c2c1C(C)(C)Cc1cnc(Nc3ccc(N4CCN(C)CC4)cc3)nc1-2,-6.29,-1.38,-4.96,-0.55
COc1ccc(C2=N[C@@H](c3ccc(Cl)cc3)[C@@H](c3ccc(Cl)cc3)N2C(=O)N2CCNC(=O)C2)c(OC(C)C)c1 [Nutlin-3],-0.462,0.131,0.103,0.292

# One compound at a time, from the list above.
# `Cc1c(NC(=O)c2ccc(C(C)(C)C)cc2)cccc1-c1cn(C)c(=O)c(Nc2ccc(C(=O)N3CCOCC3)cc2)n1` is listed as nucleus area z-score [1]: 2.14; total neurite length per nucleus (z-score) [2]: 1.45; nucleus roundness z-score [3]: 0.806; KCl-induced FOS+/EGR-1+ double-positive nuclei fraction z-score [4]: 1.9
# `COc1ccc(CNCc2cccc3ccccc23)cc1` is listed as nucleus area z-score [1]: -0.349; total neurite length per nucleus (z-score) [2]: -0.355; nucleus roundness z-score [3]: 0.178; KCl-induced FOS+/EGR-1+ double-positive nuclei fraction z-score [4]: 0.947
